For 53 molecules, thermal shift dTm results are on record in PubChem BioAssay AID1347422 (Sanford-Burnham Center for Chemical Genomics, 2020).

By UniProt entry, the sequences of proteins in these tests, tags left out. Where a name states a change or a piece, a line headed by the entry shows the natural chain unless it says otherwise.
UniProt O00391: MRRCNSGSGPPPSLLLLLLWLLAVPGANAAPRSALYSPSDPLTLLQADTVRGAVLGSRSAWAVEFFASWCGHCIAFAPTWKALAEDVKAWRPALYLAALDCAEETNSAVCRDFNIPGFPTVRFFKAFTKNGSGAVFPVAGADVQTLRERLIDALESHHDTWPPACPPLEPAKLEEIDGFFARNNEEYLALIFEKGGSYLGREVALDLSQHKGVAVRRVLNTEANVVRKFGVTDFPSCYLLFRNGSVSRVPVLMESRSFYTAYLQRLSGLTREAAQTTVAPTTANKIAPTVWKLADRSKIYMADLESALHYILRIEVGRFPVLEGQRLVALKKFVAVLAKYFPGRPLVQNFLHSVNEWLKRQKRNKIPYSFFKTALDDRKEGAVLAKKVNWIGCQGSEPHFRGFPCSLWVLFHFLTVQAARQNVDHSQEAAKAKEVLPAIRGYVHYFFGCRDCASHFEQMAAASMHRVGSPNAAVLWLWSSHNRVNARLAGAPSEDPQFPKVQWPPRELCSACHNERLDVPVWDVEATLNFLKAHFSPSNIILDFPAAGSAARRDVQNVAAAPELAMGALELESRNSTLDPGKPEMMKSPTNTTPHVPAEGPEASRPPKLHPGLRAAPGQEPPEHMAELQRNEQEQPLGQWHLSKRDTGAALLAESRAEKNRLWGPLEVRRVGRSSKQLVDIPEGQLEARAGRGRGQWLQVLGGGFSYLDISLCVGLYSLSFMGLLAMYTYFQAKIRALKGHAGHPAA

Each structure is given as a SMILES string. In all, about 1,000 compounds were measured (“thermal shift dTm”: median about 0.19, highest 2% from about 1.7 on). This is one part of the list. Calls of active or inactive are those of the source.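 How the source made its calls: active means mean rise in melting temperature of at least 1 degC over same-plate control wells; inactive means below that, where a call was filed.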

This assay deals with Sulfhydryl oxidase 1 (Homo sapiens) (UniProt O00391). As to the kind of experiment: ligand-induced melting shift of human QSOX1 – biophysical, protein thermal shift, single concentration, QSOX1 inhibitor project, confirmation (AID 1347422).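 Further: dTm is compound Tm minus mean Tm of DMSO-only wells on that plate.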 The following applies: recombinant hQSOX1 thermal shift, Sypro Orange, at 25 µM, stronger effect = higher value.
As for `CCCC(=O)NC(c1ccc(Cl)cc1)c1c(O)ccc2ccccc12` (stereo not drawn), the thermal shift dTm turned out to be 0.01 °C.
The same measure for `Cc1ccc(NC(=O)Nc2ccc(C)c(F)c2)c(C)c1`: 0.56 °C.
The same measure for `COc1ccc(-c2cc3ccc(OC(C)=O)cc3oc2=O)cc1`: 0.21 °C.
In the case of `O=C(Nc1ccc(C(=O)N2CCCCC2)cc1)Nc1ccc2c(c1)OCO2` it was 0.32 °C.
With `CCCNS(=O)(=O)c1cc(C(=O)Nc2cccc(C)c2)ccc1N1CCCC1`, the thermal shift dTm is inactive: -5.56 °C.
The same measure for `Cc1ccc(-c2noc(CNC(=O)C34CC5CC(CC(C5)C3)C4)n2)cc1`: 0.16 °C; for `CC(=O)Nc1cccc(NC(=O)COc2ccc(F)cc2Cl)c1`: inactive: 0 °C.
As to `O=C(Nc1cccc(Cl)c1)N1CCC(C(O)(c2ccccc2)c2ccccc2)CC1`, the thermal shift dTm stood at 0.21 °C.
The same measure for `Cc1ccc2cccc(OCCCCOc3ccccc3I)c2n1`: 0.77 °C.
As for `COCCNC(=O)/C(=C/c1ccc(-c2cc(Cl)ccc2Cl)o1)NC(=O)c1ccc(C)cc1`, the thermal shift dTm is inactive: -0.09 °C.
For `c1cc(NCc2ccc3c(c2)OCO3)cc(-c2nc3ccccc3[nH]2)c1`, the thermal shift dTm is active: 2.39 °C.
The same measure for `CCOc1ccc(C(=O)Nc2cccc(OCC)c2)cc1`: inactive: -0.1 °C; for `FC(F)(F)c1ccc(Cl)c(Nc2nnc(-c3ccncc3)s2)c1`: 0.77 °C; for `CCOc1ccccc1NC(=O)/C=C/c1cccc(Cl)c1`: 0.4 °C.
With `S=C(c1ccc(OCc2ccc(Cl)c(Cl)c2)cc1)N1CCOCC1`, the thermal shift dTm was 0.16 °C.
Take `Cc1ccc(-c2nnc(-c3ccc(N)cc3)o2)cc1`: the thermal shift dTm turned out to be 0.25 °C.
The same measure for `Nc1cc(C(O)c2ccccc2)ccc1N1CCCCC1` (stereo not drawn): 0.13 °C; for `COc1ccc(NC(=S)Nc2ccc3nccnc3c2)cc1`: active: 1.58 °C.
In the case of `COc1ccc(Nc2nnc(-c3ccccc3)c3ccccc23)cc1` it was 0.01 °C; in that of `O=C(Nc1cccc(Cl)c1)N1CCN(c2ccccc2F)CC1`, 0.98 °C; in that of `CC(C)N(Cc1nc(-c2ccccc2)no1)S(=O)(=O)c1ccc(Br)cc1`, 0.07 °C.
The same measure for `CCN(C(=O)Nc1ccc(OC)cc1)c1nnc(-c2ccc(Cl)cc2)s1`: 0.16 °C; for `COc1ccc(C2=N[N+](c3nc(-c4ccc(S(=O)(=O)N5CCCC5)cc4)cs3)=C(c3ccc(OC)cc3)C2)cc1`: inactive: -0.18 °C.
On to `O=C(Nc1cccc(-c2nc3ccccc3[nH]2)c1)C1CCCO1` (stereo not drawn), for which the thermal shift dTm was determined as 0.02 °C.
The same measure for `Cc1ccc2ccc(C(Nc3ccccn3)c3ccc(Cl)cc3)c(O)c2n1` (stereo not drawn): 0.57 °C; for `COc1ccc(OC)c(-c2nc(NC(=O)c3ccccc3OC)sc2C)c1`: inactive: -7.06 °C; for `COc1ccc(-c2cc3ccc(OCc4ccccc4F)cc3oc2=O)cc1OC`: 0.11 °C.
The same measure for `O=C(NCCSc1ccc(Cl)cc1)Nc1ccccc1`: 0.61 °C.
The same measure for `COc1ccc(-c2cc(C(F)(F)F)nc(NCc3cccs3)n2)cc1OC`: 0.11 °C; for `O=C(/C=C/c1ccc(F)cc1)Nc1ccncc1`: 0.57 °C.
In the case of `COc1ccc(Cl)cc1NC(=S)Nc1c(C)nn(Cc2c(F)cccc2Cl)c1C`, the thermal shift dTm came out at 0.81 °C.
In the case of `Cc1onc(-c2ccccc2Cl)c1C(=O)Nc1sc2c(c1C(N)=O)CCC2` it was 0.27 °C.
For the molecule `O=C1CC(NC(=O)Nc2nc(-c3ccccc3)ns2)c2ccccc2N1` (stereo not drawn), the thermal shift dTm was 0.46 °C.
In the case of `O=C(CS(=O)(=O)c1ccc2ccccc2c1)Nc1ccc(Cl)c(Cl)c1` it was 0.11 °C; in that of `CNS(=O)(=O)c1ccc(NC(=O)c2cc(-c3ccccc3)nc3ccccc23)cc1`, 0.71 °C; in that of `CCCC(=O)Nc1ccc2nc(NC(=O)CCC)sc2c1`, 0.34 °C.
`COc1ccc(CCC(=O)Nc2nc3ccc(S(C)(=O)=O)cc3s2)cc1`: the thermal shift dTm was determined as 0.35 °C.
The same measure for `COc1ccc(-c2cc3ccc(OCc4ccccc4Cl)cc3oc2=O)cc1OC`: 0.16 °C; for `Cc1ccc(CCC(=O)Nc2ccc(S(=O)(=O)N3CCOCC3)cc2)cc1`: inactive: -0.01 °C.
The same measure for `Clc1ccc(OCCCCOc2cccc3cccnc23)cc1`: 0.05 °C; for `O=C(/C=C/c1cccs1)Nc1ccc(Br)cc1F`: inactive: -0.03 °C; for `COc1ccc(/C=C/C(=O)Nc2cccc(C(C)=O)c2)cc1`: active: 1.18 °C.
In the case of `O=c1c2c3nc4ccccc4nc3n(CCc3ccccc3)c2ncn1Cc1ccco1` it was 0.16 °C.
As for `COc1ccc(NC(=O)CSc2nnc(C)c(=O)n2N)cc1Cl`, the thermal shift dTm came to 0.27 °C.
The same measure for `Cc1ccc(SC(C)C(=O)Nc2ccc(C(N)=O)cc2)cc1` (stereo not drawn): 0.05 °C; for `CCCOc1ccc(-c2cc(C(N)=O)c3ccccc3n2)cc1`: inactive: -0.09 °C; for `O=C1CC(c2ccc(Cl)cc2)CC2=C1C=Nc1ccccc1N2` (stereo not drawn): 0.15 °C.
On to `Cc1c(Cl)cccc1-c1ccc(C(=O)NCc2ccco2)o1`, for which the thermal shift dTm is 0.15 °C.
As for `CCN(CC)S(=O)(=O)c1ccc(-c2csc([N+]3=C(c4ccc(OC)cc4)CC(c4ccc(OC)cc4)=N3)n2)cc1`, the thermal shift dTm was inactive: -0.04 °C.
In the case of `COCCCNC(=O)/C(=C\c1ccc(-c2ccc(Cl)cc2)o1)NC(=O)c1ccc(C)cc1` it was 0.19 °C.
The same measure for `COc1ccccc1C(=O)NC(=S)Nc1ccc(NC(=O)C(C)C)cc1`: 0.11 °C.
In the case of `Cc1cccc(NC(=O)Nc2ccc(C)c(C)c2)c1` it was 0.98 °C.
With `Cc1cc(C)nc(NS(=O)(=O)c2ccc(NC(=O)c3cccs3)cc2)n1`, the thermal shift dTm was active: 2.92 °C.
